Measurements taken from patent US20030022263.

How the values were obtained:
[1] = test system: T1, GST-4EBP1 (Phas I) peptide (S94)
T1 sequence: EPPMEASQSHLRNS

[2] = test system: T2, GST-ATM peptide (S2761)
T2 sequence: YKVVPLSQRSGVLE

[3] = test system: T3, GST-ATM peptide (S440)
T3 sequence: PLLMILSQLLPQQR

[4] = test system: T4, GST-ATR peptide (S1333)
T4 sequence: TVEPIISQLVTVLL

[5] = test system: T5, GST-BRCA1 (SQ1) peptide (S1298)
T5 sequence: SASLFSSQCSELED

[6] = test system: T6, GST-BRCA1 (SQ2) peptide (S1387)
T6 sequence: DCSGLSSQSDILTT

[7] = test system: T7, GST-BRCA1 (SQ3) peptide (S1466)
T7 sequence: SSEYPISQNPEGLS

[8] = test system: T8, GST-BRCA2 peptide (S2156)
T8 sequence: KVSPYLSQFQQDKQ

[9] = target: GST-Brca1SQ2 (1341-1440) (UniProt P38398)
[10] = test system: T9, GST-CHK1 (SQ1) peptide (S317)
T9 sequence: NVKYSSSQPEPRTG

[11] = test system: T10, GST-CHK1 (SQ2) peptide (S345)
T10 sequence: VQGISFSQPTCPDH

[12] = test system: T11, GST-CUT1 peptide (S1615)
T11 sequence: GASPVLSQGVDPRS

[13] = test system: T12, GST-CtIP peptide (S664)
T12 sequence: DPGADLSQYKMDVT

[14] = test system: T13, GST-DNA 5B peptide (S72)
T13 sequence: QPEPPVSQSEISEP

[15] = test system: T14, GST-DNA LIG-IV peptide (S132)
T14 sequence: DLKLGVSQQTIFSV

[16] = test system: GST-DNA POL-δ peptide (S717)
[17] = test system: T15, GST-MRE11 (SQ1) peptide (S264)
T15 sequence: QQLFYISQPGSSVV

[18] = test system: T16, GST-MRE11 (SQ2) peptide (S386)
T16 sequence: FSVLRFSQKFVDRV

[19] = test system: T17, GST-MRE11 (SQb3) peptide (S531)
T17 sequence: RARALRSQSEESAS

[20] = test system: T18, GST-PI-3K peptide (S397)
T18 sequence: DLLMYLSQLVQALK

[21] = test system: T19, GST-PP2A (protein phosphatase 2A) peptide (S61)
T19 sequence: LLHIPVSQFKDADL

[22] = test system: T20, GST-PTS (123F2) peptide (S61)
T20 sequence: WETPDLSQAEIEQK

[23] = test system: T21, GST-RAD17 (SQ1) peptide (S646)
T21 sequence: TWSLPLSQDSASEL

[24] = test system: T22, GST-RAD17 (SQ2) peptide (S656)
T22 sequence: ASELPASQPQPFSA

[25] = test system: T23, GST-RPA34kD (SQ1) peptide (S33)
T23 sequence: FPAPAPSQAEKKSR

[26] = test system: T24, GST-RPA34kD (SQ2) peptide (S52)
T24 sequence: IVPCTISQLLSATL

[27] = test system: T25, GST-RPA34kD (SQ3) peptide (S72)
T25 sequence: TGNVEISQVTIVGI

[28] = target: T26, GST-Rad17 (561-670) (UniProt O75943)
T26 sequence: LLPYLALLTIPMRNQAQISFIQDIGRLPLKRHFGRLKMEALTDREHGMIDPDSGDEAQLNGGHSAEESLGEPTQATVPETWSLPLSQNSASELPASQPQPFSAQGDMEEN

[29] = test system: T27, GST-WRN (SQ1) peptide (S1141)
T27 sequence: EKAYSSSQPVISAQ

[30] = test system: T28, GST-WRN (SQ2) peptide (S1292)
T28 sequence: TIGMHLSQAVKAGC

[31] = test system: T29, GST-c-ABL peptide (S446)
T29 sequence: YPGIDLSQVYELLE

[32] = test system: T30, GST-p115-RhoGEF peptide (S899)
T30 sequence: RLRPLLSQLGGNSV

[33] = test system: GST-p120E4F peptide (S355)
[34] = test system: T31, GST-p53 peptide (S37)
T31 sequence: VLSPLPSQAMDDLM

[35] = test system: GST-p53 peptide with serine 15 mutated into threonine
[36] = test system: T32, GST-p95 peptide (S343)
T32 sequence: TPGPSLSQGVSVDE

[37] = test system: T33, GST-β-ADAPTIN peptide (S935)
T33 sequence: CRAPEVSQHVYQAY

[38] = test system: T34, GST-β3A Adaptin peptide (S1092)
T34 sequence: ELKPVLSQG

[39] = target: GSTp53 1-101 fusion protein (UniProt P04637)

Question: For FLAG-tagged wild type ATR/FRP1, which Relative Phosphorylation (%) [1] is on record?
Answer: 66%

Question: What about the Relative Phosphorylation (%) [2] of the same substance?
Answer: 22%

Question: What about the Relative Phosphorylation (%) [3] of the same substance?
Answer: 55%

Question: And the Relative Phosphorylation (%) [4]?
Answer: 10%

Question: What about the Relative Phosphorylation (%) [5] of the same substance?
Answer: 38%

Question: And the Relative Phosphorylation (%) [6]?
Answer: 35%

Question: And the Relative Phosphorylation (%) [7]?
Answer: 33%

Question: And the Relative Phosphorylation (%) [8]?
Answer: 132%

Question: What about the “in vitro kinase assay” value [9] of the same substance?
Answer: excellent in vitro substrates for ATM and ATR

Question: And the Relative Phosphorylation (%) [10]?
Answer: 58%

Question: What about the Relative Phosphorylation (%) [11] of the same substance?
Answer: 73%

Question: And the Relative Phosphorylation (%) [12]?
Answer: 20%

Question: What about the Relative Phosphorylation (%) [13] of the same substance?
Answer: 12%

Question: And the Relative Phosphorylation (%) [14]?
Answer: 145%

Question: What about the Relative Phosphorylation (%) [15] of the same substance?
Answer: 36%

Question: What about the Relative Phosphorylation (%) [16] of the same substance?
Answer: 17%

Question: What about the Relative Phosphorylation (%) [17] of the same substance?
Answer: 48%

Question: And the Relative Phosphorylation (%) [18]?
Answer: 17%

Question: And the Relative Phosphorylation (%) [19]?
Answer: 13%

Question: What about the Relative Phosphorylation (%) [20] of the same substance?
Answer: 150%

Question: And the Relative Phosphorylation (%) [21]?
Answer: 34%

Question: What about the Relative Phosphorylation (%) [22] of the same substance?
Answer: 40%

Question: What about the Relative Phosphorylation (%) [23] of the same substance?
Answer: 733%

Question: What about the Relative Phosphorylation (%) [24] of the same substance?
Answer: 1060%

Question: What about the Relative Phosphorylation (%) [25] of the same substance?
Answer: 5%

Question: And the Relative Phosphorylation (%) [26]?
Answer: 31%

Question: What about the Relative Phosphorylation (%) [27] of the same substance?
Answer: 8%

Question: What about the “in vitro kinase assay” value [28] of the same substance?
Answer: excellent in vitro substrates for ATM and ATR

Question: And the Relative Phosphorylation (%) [29]?
Answer: 49%

Question: What about the Relative Phosphorylation (%) [30] of the same substance?
Answer: 33%

Question: What about the Relative Phosphorylation (%) [31] of the same substance?
Answer: 8%

Question: What about the Relative Phosphorylation (%) [32] of the same substance?
Answer: 15%

Question: And the Relative Phosphorylation (%) [33]?
Answer: 30%

Question: What about the Relative Phosphorylation (%) [34] of the same substance?
Answer: 31%

Question: What about the “amount of phosphorylation compared to the wild-type sequence” value [35] of the same substance?
Answer: reduced to 13%, 53%, and 36% compared to the wild-type sequence for ATM, ATR, and DNA-PK, respectively

Question: And the Relative Phosphorylation (%) [36]?
Answer: 31%

Question: What about the Relative Phosphorylation (%) [37] of the same substance?
Answer: 22%

Question: And the Relative Phosphorylation (%) [38]?
Answer: 22%

Question: What about the “in vitro kinase activity compared with ATM” value [39] of the same substance?
Answer: ATR/FRP-1 had at least 20-fold less activity than ATM towards GSTp531-101
